Among all 400,000 compounds or so, about 13,000 (3.2%) were called active. The shares of active, inactive and inconclusive entries below differ from those in the screen. Calls follow the shape of the dose curve; as a rule, active = well fitted cell-killing curve with a large enough effect; inconclusive = small, poorly fitted or top-dose-only effect, or effect the other way; inactive = flat fitted curve, though single readings scatter. Potencies beside an inconclusive call are fits to weak or partial responses and may not hold up.
Experiment: qHTS assay for MDR1-selective chemotherapeutics: Primary screen using the drug-selected MDR subline cells KB-V1; also: nearly all actives have a fitted effect of over 60% in size
Conditions: KB-V1 MDR cells viability, CellTiter-Glo, 72 h; activity change, negative = cytotoxicity: at 46.1 µM (top of the series)
In short: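 Cytotoxicity via CellTiter-Glo luminescence after 72 h compound exposure at 37 degrees C. Cells: drug-selected KB-V1 line, DMEM phenol-red free plus 10% FBS. Compounds tested at multiple concentrations; normalized data fitted to concentration-effect curves.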
% is scaled to controls: 0 for no effect and ±100 for the full control effect; potency is read from the fitted curve at half-maximal effect.

Row | SMILES | Potency | activity change, negative = cytotoxicity
1 | CC/C(O)=C1\C(=O)CC(c2ccccc2)CC1=NCCC(=O)O (stereo not given) | inconclusive: 3.26 µM [rising, full curve] | 
2 | CCc1ccc2[nH]c3nc(SCc4nnc(-c5ccc(C)cc5)o4)nnc3c2c1 | inconclusive: 16.4 µM [cytotoxic, partial curve, poor fit] | 
3 | COc1cccc(NC(=O)CN(C)C(=O)CCNS(=O)(=O)c2ccc(C)cc2)c1 | inactive | 
4 | COC(=O)Cc1c[nH]c2cccc(OCC(O)CN(Cc3ccccc3)C(C)C)c12 (stereo not given) | inconclusive: 3.66 µM [cytotoxic, full curve] | 
5 | COc1cc(C(=O)NNC(=S)Nc2ccc(S(N)(=O)=O)cc2)cc(OC)c1OC |  | inconclusive: 6.91%
6 | Cc1cc(NC(=O)c2ccc(-c3ccc(F)c(Cl)c3)o2)no1 | inactive | 
7 | Cc1ccc(CNC(=O)CSc2c3c(nc4cc(Cl)ccc24)CCCC3)o1 | inconclusive: 20.6 µM [cytotoxic, partial curve] | 
8 | CCN(CC)S(=O)(=O)c1cc(C(=O)NC2CCCCC2)ccc1C | active: 13 µM | 
9 | CCn1nc(C)c(/C=N/NC(=O)c2ccc3c(c2)c(C)c(C)n3Cc2ccccc2)c1C | inactive | 
10 | CCOc1ccc(OCC)c(S(=O)(=O)N2CCN(c3cccc(C)c3C)CC2)c1 | inconclusive: 18.4 µM [cytotoxic, partial curve, poor fit] | 
11 | CC(=O)c1ccc(N2CCN(C(C)C(=O)NC3CCCc4ccccc43)CC2)cc1 (stereo not given) | active: 9.2 µM | 
12 | CCC(NC(=O)c1ccccc1NC(=O)C(C)(C)C)C(=O)N1CCCC1 (stereo not given) | inconclusive: 14.6 µM [cytotoxic, partial curve] | 
13 | COc1ccccc1OCCC(=O)OCC(=O)NC(=O)NC(C)(C)C | inconclusive: 6.51 µM [rising, partial curve] | 
14 | Cc1ccc(CN(C(=O)COc2cccc([N+](=O)[O-])c2)c2ccccn2)cc1 | inconclusive: 14.6 µM [cytotoxic, partial curve, poor fit] | 
15 | Cc1ccccc1CNS(=O)(=O)c1ccc2c(c1)OCCO2 | inconclusive: 16.4 µM [cytotoxic, single point] | 
16 | COc1cccc(COC(=O)C2CCN(C(=O)c3ccccc3C)CC2)c1OC | inconclusive: 0.0092 µM [cytotoxic, full curve, poor fit] | 
17 | CCOC(=O)C1CCN(c2ncnc3c2nnn3C)CC1 | inactive | 
18 | Cc1ccc(Nc2nnc(-c3ccc(N4CCOCC4)c([N+](=O)[O-])c3)c3ccccc23)cc1 | inactive | 
19 | O=C(c1ccccc1)C(Cn1cncn1)C(Sc1ccccc1)c1ccccc1 (stereo not given) | inconclusive: 29.1 µM [cytotoxic, single point] | 
20 | CC(C)CC(=O)N1CCC(N(CCc2ccccc2)Cc2ccccc2)CC1 | inactive | 
21 | Cc1ccccc1S(=O)(=O)NC(=O)C1(C)CCN1C(=O)COc1ccc(Cl)cc1 (stereo not given) | inactive | 
22 | Cc1csc(NC(=O)CCc2ccc(S(=O)(=O)N3CCOCC3)cc2)n1 | active: 23.1 µM | 
23 | Oc1ccc(-c2nccc(-c3ccc(F)cc3)n2)cc1 | inactive | 
24 | CC(=O)c1cccc(S(=O)(=O)N2CCN(c3nc(-c4cccs4)nc4ccccc34)CC2)c1 | inactive | 

Row | SMILES | Potency | activity change, negative = cytotoxicity
25 | CC(=NNC1=NCCN1)c1cnn(C2=NCCN2)c1C | inactive | 
26 | COc1cccc(C(C)(O)c2nc(-c3cccc(C(F)(F)F)c3)cs2)c1 (stereo not given) | inactive | 
27 | CC1=C(C(=O)N2CCOCC2)CC(CC(=O)NCCCN(C)C)C(=O)N1CCC1=CCCCC1 (stereo not given) | inactive | 
28 | COc1cccc(/C=C/C(=O)NNC(=O)CCN2CCN(Cc3ccccc3)CC2)c1 | inactive | 
29 | O=c1oc2ccccc2cc1-c1csc(Nc2nc3c(F)cccc3s2)n1 | inconclusive: 23.1 µM [cytotoxic, partial curve] | 
30 | CCOc1ccc(Br)cc1C(=O)N/N=C/c1ccccn1 | inactive | 
31 | O=C(c1ccc2c(c1)OCO2)C1CCCN(C2CCN(CCc3ccccc3)CC2)C1 (stereo not given) | inactive | 
32 | COC(=O)C1C(=O)C2=C(CC1C)NC(C)=C(C(=O)OC1CCCC1)C2c1ccc(N(C)C)cc1 (stereo not given) | inconclusive: 16.4 µM [cytotoxic, partial curve, poor fit] | 
33 | NC(Cc1ccc(O)c([N+](=O)[O-])c1)C(=O)O (stereo not given) | inactive | 
34 | Cc1noc(C)c1COC(=O)C1CCN(S(=O)(=O)c2c(Cl)cccc2Cl)CC1 | inconclusive: 29.1 µM [rising, single point] | 
35 | O=C1CN(C(=O)/C=C/c2ccc(Br)cc2)CCN1 | inconclusive: 23.1 µM [rising, partial curve, poor fit] | 
36 | C=CCn1c(SCC(=O)Nc2ccc3c(c2)OCCO3)nnc1-c1ccco1 | active: 9.2 µM | 
37 | O=C(Nc1ccc2c(c1)OCO2)c1noc2c1CCCCC2 | inconclusive: 20.6 µM [cytotoxic, single point] | 
38 | CN(CC(=O)Nc1ccc(F)c(F)c1F)C(=O)CCc1nc2sc3c(c2c(=O)[nH]1)CCCC3 | inactive | 
39 | COc1ccc(-c2[nH]ncc2CNCCn2cccn2)c(F)c1 | inconclusive: 29.1 µM [rising, single point] | 
40 | CCc1nc2cc(NC(=O)C3(C)CCCN(C(C)=O)C3)ccc2o1 (stereo not given) | inactive | 
41 | CC(C)C[C@@H](CN1CCC[C@@H]1CN1C(=S)NC[C@@H]1Cc1ccc(O)cc1)N1C[C@H](Cc2ccc(O)cc2)N(CC2CCCCCC2)C1=S | inconclusive: 29.1 µM [cytotoxic, single point] | 
42 | COc1ccc(CC(=O)Nc2sc3c(c2C(N)=O)CCCC3)cc1OC | active: 13 µM | 
43 | CCCCCC(=O)NNC(=S)NC(=O)c1cccc([N+](=O)[O-])c1 | inconclusive: 2.31 µM [cytotoxic, full curve, poor fit] | 
44 | Cc1ccc(NC(=O)N(Cc2cn(C)c3ccccc23)C2CCCCC2)cc1C | inconclusive: 18.4 µM [cytotoxic, single point] | 
45 | O=C(CSc1nc2ccccc2n1Cc1ccccc1F)NCc1ccccc1 | inactive | 
46 | CC(C)CC(=O)Nc1cccc(NC(=O)CC(C)C)n1 | inconclusive: 23.1 µM [cytotoxic, single point] | 
47 | CC[C@@]12C(=O)N(c3cccc(C)c3)C(=O)N1[C@H](c1ccc(Br)cc1)[C@@H]1C(=O)N(C(C)(C)C)C(=O)[C@@H]12 | inconclusive: 16.4 µM [cytotoxic, partial curve] | 
48 | COc1ccc(CNC(=O)C2CCN(C(=O)c3csc(Nc4ccc(C)cc4)n3)CC2)cc1 | inconclusive: 23.1 µM [cytotoxic, single point] | 

Row | SMILES | Potency | activity change, negative = cytotoxicity
49 | O=C(c1cccc2ccccc12)C1CCCN(C(=O)C2CCOCC2)C1 (stereo not given) | inconclusive: 29.1 µM [cytotoxic, single point] | 
50 | Cc1cc(C)cc(OCC(=O)Nc2ccc(-c3nc4ccccc4s3)cc2)c1 | inactive | 
51 | O=C(NC1CCCC1)c1cc(S(=O)(=O)N2CCOCC2)c(Cl)cc1Cl | inconclusive: 14.6 µM [cytotoxic, partial curve, poor fit] | 
52 | O=C1C2C(C(=O)N1/N=C/c1cc(Br)cc([N+](=O)[O-])c1O)C1C=CC2C12CC2 (stereo not given) | inconclusive: 29.1 µM [cytotoxic, partial curve, poor fit] | 
53 | Cc1cc(C)n2c(NC3CCCC3)c(-c3cccnc3)nc2n1 | inconclusive: 10.3 µM [cytotoxic, partial curve] | 
54 | COc1ccccc1N1CCN(C(c2ccccc2Cl)c2nnnn2C(C)(C)C)CC1 (stereo not given) | inconclusive: 29.1 µM [cytotoxic, single point] | 
55 | CN(c1ccccc1)S(=O)(=O)c1cccc(NC(=O)CN2C(=O)NC3(CCCCC3)C2=O)c1 | inactive | 
56 | COC(=O)c1c(NC(=O)c2ccc(S(=O)(=O)N3CCOCC3)cc2)sc2c1CCN(C(C)C)C2 |  | inconclusive: 0.147%
57 | COc1cc(C(=O)NNC(=O)COc2ccc(Br)cc2)ccc1OCC(=O)N1CCOCC1 | inconclusive: 29.1 µM [rising, single point] | 
58 | Cc1ccc(-n2c(COc3ccccc3)n[nH]c2=S)cc1 | inactive | 
59 | CCC1CCCCN1CCCNC(=O)c1cc2c(Cl)nc3ccccc3c2s1 (stereo not given) | inconclusive: 23.1 µM [cytotoxic, single point] | 
60 | O=C(NCCCO)c1cc2c([nH]c3ccccc32)c(-c2ccc(F)cc2)n1 | inconclusive: 23.1 µM [cytotoxic, single point] | 
61 | CC(=O)n1cc(C=O)c2ccccc21 | inconclusive: 23.1 µM [rising, single point] | 
62 | Cc1ccc(-n2nc3c(c2NC(=O)/C=C\c2ccc4c(c2)OCO4)CSC3)cc1 |  | inconclusive: 5.92%
63 | Cn1c(O)c(N=NC(=O)CNC(=O)c2ccccc2)c2ccccc21 | inconclusive: 20.6 µM [cytotoxic, single point] | 
64 | CCOC(=O)C[C@H]1c2cc(F)ccc2S(=O)(=O)N1c1cccc(OC)c1 | inconclusive: 20.6 µM [cytotoxic, single point] | 
65 | COc1ccc(-c2csc(NC(=O)c3cc(=O)c4ccccc4o3)n2)cc1OC |  | inconclusive: -7.99%
66 | Cc1c(C(=O)NCc2cccc(Cl)c2)sc(=O)n1Cc1cccc(F)c1 | active: 18.4 µM | 
67 | Cc1ccc(NC(=O)CNC(=O)c2cccc(C)c2)nc1 | inconclusive: 29.1 µM [cytotoxic, single point] | 
68 | O=C(CN1C(=O)CCc2cc(S(=O)(=O)N3CCOCC3)ccc21)NCc1ccc(F)cc1 | inconclusive: 29.1 µM [rising, single point] | 
69 | COc1ccc(-c2csc(NC(=O)CSc3nnnn3C)n2)c(OC)c1 | inconclusive: 29.1 µM [cytotoxic, single point] | 
70 | CC(C)(C)c1ccc(C(=O)N/N=C2\C3CN4CCN(C3)CC2(c2ccccc2)C4)cc1 | inconclusive: 16.4 µM [cytotoxic, single point] | 

Three structures already listed, ordered by count of non-hydrogen atoms, rising.
Row | SMILES | Potency | activity change, negative = cytotoxicity
39 | COc1ccc(-c2[nH]ncc2CNCCn2cccn2)c(F)c1 | inconclusive: 29.1 µM [rising, single point] | 
11 | CC(=O)c1ccc(N2CCN(C(C)C(=O)NC3CCCc4ccccc43)CC2)cc1 (stereo not given) | active: 9.2 µM | 
9 | CCn1nc(C)c(/C=N/NC(=O)c2ccc3c(c2)c(C)c(C)n3Cc2ccccc2)c1C | inactive | 

Reference: PubChem BioAssay AID1347076 (National Center for Advancing Translational Sciences (NCATS), 2019)
